A short description of series [1]: solid-phase peptide synthesis. The note with it: for final purity (method not given): HPLC.
A short description of series [2]: general procedure: Boc solid-phase peptide synthesis; MBHA resin; DIC/HOBt. The note with it: whole synthesis, scale 3.3 g MBHA resin, trifluoroacetate (Examples 7-9).
Series [3] can be described thus: Fmoc solid-phase peptide synthesis; aminomethyl-substituted resin, Type D-1675, Bachem; DIC/HOBt. The note with it: whole synthesis, trifluoroacetate (Examples 7-9).
Where [4] appears, read: whole synthesis, scale 9.2 g MBHA resin, trifluoroacetate (Examples 7-9).
The mark [5] stands for this setting: whole synthesis, scale 2.5 g MBHA resin, trifluoroacetate (Examples 7-9).
[6] abbreviates: whole synthesis, scale 4.0 g MBHA resin, trifluoroacetate (Examples 7-9).
The mark [7] stands for this setting: late stage modification step, trifluoroacetate.

In series [1] (setting [4]), “3-(4-Fluorophenyl)propionyl-D-Nal(1)^1-Ser^4-N-Me-Tyr^5-D-Lys (Atz)^6-Leu^7-Arg^8-Pro^9-D-Ala^10-NH2” yielded a crude mass of 5.8 g and an isolated mass of 2.0 g.

In series [2], “Ac-D-Nal(2)^1-D-Cpa^2-D-Pal(3)^3-Ser^4-N-Me-Tyr^5-D-Hci^6-Nle^7-Arg^8-Pro^9-D-Ala^10-NH2” registered a crude mass of 3.4 g and an isolated mass of 1.43 g.

Turning to “Ac-D-Nal(2)^1-D-Cpa^2-D-Pal(3)^3-Ser^4-N-Me-Tyr^5-D-Hci^6-Nle^7-Lys(iPr)^8-Pro^9-D-Ala^10-NH2”, in series [1] (setting [5]), the crude mass was 2.78 g and the isolated mass is 0.4 g.

As for “Ac-D-Nal(2)^1-D-Cpa^2-D-Pal(3)^3-Ser^4-N-Me-Tyr^5-D-Lys(B)^6-Leu^7-Lys(iPr)^8-Pro^9-D-Ala^10-NH2”, in series [1] (setting [6]), the crude mass came to 4.87 g and the isolated mass worked out at 0.93 g.

Consider “Ac-D-Nal(2)^1-D-Cpa^2-D-Pal(3)^3-Ser^4-N-Me-Tyr^5-D-Lys(B)^6-Nle^7-Arg^8-Pro^9-D-Ala^10-NH2”, for which the “final purity (method not given)” value in series [1] (setting [7]) stood at 98.8%. Moreover, the “crude HPLC purity” value in series [3] is reported as “about 71%”.

As to “Ac-D-Nal(2)^1-D-Cpa^2-D-Pal(3)^3-Ser^4-N-Me-Tyr^5-D-Lys(B)^6-Nle^7-Arg^8-Pro^9-Sar^10-NH2”, the “final purity (method not given)” value in series [1] (setting [7]) is on record as “about 99%”; in series [3] (HPLC), 98.5%.

For the substance “Ac-D-Nal(2)^1-D-Cpa^2-D-Pal(3)^3-Ser^4-N-Me-Tyr^5-D-Lys(B)^6-Nle^7-Lys(iPr)^8-Pro^9-Sar^10-NH2”, the “final purity (method not given)” value in series [1] (setting [7]) amounted to 96.6%; in series [1] (whole synthesis, trifluoroacetate (Examples 7-9)), 95%. In series [3], the “crude HPLC purity” value is recorded as “about 59%”.

With “Ac-D-Nal(2)^1-D-Cpa^2-D-Pal(3)^3Ser^4-N-Me-Tyr^5-D-Hci^6-Nle^7Lys(iPr)^8-Pro^9-Sar^10-NH2”, in series [1] (setting [5]), the crude mass was 2.74 g and the isolated mass is 0.84 g.

For the origin of these results see patent publication US7732412B2 (Zentaris GmbH, priority 1999, dated 2010).
